# Data taken from PubChem BioAssay (EPA / NIEHS).
# Amino acid sequences for entries named in this document (tags omitted). A change or cut given only in a name is not applied to a line headed by its entry.
# UniProt P10275: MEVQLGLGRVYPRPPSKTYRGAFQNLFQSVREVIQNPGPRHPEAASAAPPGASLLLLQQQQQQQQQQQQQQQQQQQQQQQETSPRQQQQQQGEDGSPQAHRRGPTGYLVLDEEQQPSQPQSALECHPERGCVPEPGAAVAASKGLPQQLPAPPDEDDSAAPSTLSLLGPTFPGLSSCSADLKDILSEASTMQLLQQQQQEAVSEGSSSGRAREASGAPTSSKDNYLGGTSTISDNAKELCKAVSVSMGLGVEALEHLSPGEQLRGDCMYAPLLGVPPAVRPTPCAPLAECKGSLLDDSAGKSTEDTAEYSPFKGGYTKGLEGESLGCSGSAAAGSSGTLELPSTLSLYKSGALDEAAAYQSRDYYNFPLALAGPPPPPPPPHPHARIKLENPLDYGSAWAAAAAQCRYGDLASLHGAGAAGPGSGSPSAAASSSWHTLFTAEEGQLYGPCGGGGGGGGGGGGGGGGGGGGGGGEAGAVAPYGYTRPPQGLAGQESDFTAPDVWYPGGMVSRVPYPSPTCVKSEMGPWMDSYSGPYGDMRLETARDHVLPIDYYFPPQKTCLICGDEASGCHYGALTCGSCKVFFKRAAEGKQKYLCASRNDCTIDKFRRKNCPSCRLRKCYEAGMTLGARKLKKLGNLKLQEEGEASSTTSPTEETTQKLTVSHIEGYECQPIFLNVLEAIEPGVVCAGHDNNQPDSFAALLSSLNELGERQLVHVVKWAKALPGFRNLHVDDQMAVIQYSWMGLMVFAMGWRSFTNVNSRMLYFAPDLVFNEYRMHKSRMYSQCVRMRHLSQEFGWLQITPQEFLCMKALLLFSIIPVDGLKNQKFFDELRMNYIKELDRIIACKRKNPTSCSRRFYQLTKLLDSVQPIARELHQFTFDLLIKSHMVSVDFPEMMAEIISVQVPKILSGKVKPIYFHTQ
# UniProt P06401: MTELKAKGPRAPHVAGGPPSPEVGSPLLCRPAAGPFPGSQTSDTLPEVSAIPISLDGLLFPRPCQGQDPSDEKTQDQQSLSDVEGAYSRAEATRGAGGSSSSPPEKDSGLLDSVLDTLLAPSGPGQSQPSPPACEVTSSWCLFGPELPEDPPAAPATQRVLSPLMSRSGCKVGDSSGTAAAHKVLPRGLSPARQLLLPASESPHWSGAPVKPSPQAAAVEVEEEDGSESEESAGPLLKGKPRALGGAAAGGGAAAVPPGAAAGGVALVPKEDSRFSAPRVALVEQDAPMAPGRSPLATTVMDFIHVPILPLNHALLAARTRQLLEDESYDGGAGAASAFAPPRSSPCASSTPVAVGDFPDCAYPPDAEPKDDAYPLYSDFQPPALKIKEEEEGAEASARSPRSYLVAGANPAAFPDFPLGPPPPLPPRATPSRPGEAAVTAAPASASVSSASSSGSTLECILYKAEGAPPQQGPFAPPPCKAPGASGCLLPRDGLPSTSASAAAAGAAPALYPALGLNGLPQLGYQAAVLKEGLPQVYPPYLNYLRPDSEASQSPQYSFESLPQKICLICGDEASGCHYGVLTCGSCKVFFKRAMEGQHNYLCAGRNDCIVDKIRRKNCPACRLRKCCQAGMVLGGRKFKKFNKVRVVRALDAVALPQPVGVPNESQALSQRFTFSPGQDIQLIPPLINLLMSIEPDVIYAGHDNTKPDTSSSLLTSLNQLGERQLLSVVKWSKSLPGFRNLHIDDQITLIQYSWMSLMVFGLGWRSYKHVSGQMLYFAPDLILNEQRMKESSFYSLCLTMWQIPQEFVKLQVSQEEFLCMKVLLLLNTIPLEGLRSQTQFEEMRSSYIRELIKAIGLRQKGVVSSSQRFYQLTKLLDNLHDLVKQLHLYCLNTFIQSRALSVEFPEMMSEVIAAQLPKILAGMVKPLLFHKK
# For some assays here: Most of the hits are listed elsewhere, so they are rarer here than in the full data. Inconclusive results are not listed. Only a part is listed here, and it is no random draw. Some compounds were tested as several samples or in several runs, with calls that do not always agree. The source made the active and inactive calls. Rule for the calls, unless noted: active = hit-call score of the fitted dose curve at least 0.9, where 1 is the maximum; inconclusive = response in the unintended direction; inactive = score below 0.9.
# Legend:
# AR (gene 367) = AR (gene 367) (UniProt P10275); assay: ACEA_AR_antagonist_80hr: ACEA Biosciences xCELLigence Real-Time Cell Analysis on Androgen Receptor Antagonism for Proliferation (AID 2283787);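 note: 22Rv1 human prostate cancer cells with growth followed by electrical impedance; hits lower the impedance growth signal relative to DMSO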
# Method in brief: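 Impedance-based real-time growth of 22Rv1 prostate cells, read 80 h after dosing. Eight concentrations, 1:4 series, top 100 uM final (0.5% DMSO), n = 2; signal decrease scored against DMSO.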
# [1] = molecular target: Ratio of Nucleoli Translocation and Cytoplasm, AR (gene 367) (UniProt P10275); assay: UPITT_HCI_U2OS_AR_TIF2_Nucleoli_Cytoplasm_Ratio_Antagonist: University of Pittsburgh U2OS Androgen Receptor-Transcriptional Intermediary Factor 2 (AR-TIF2) Antagonism High Content Imaging Assay for Ratio of Nucleoli Translocation and Cytoplasm (AID 2283999);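 note: antagonists lower the DHT-driven ratio of nucleolar to cytoplasmic red signal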
# Method in brief: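 High-content imaging of red fluorescence ratio, nucleoli versus cytoplasm, in U2OS expressing AR-RFP and TIF2-GFP, fitted relative to DHT. Compounds tested once at 20 uM final, then 0.195 to 50 uM final in serial dilution.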
# [2] = ATG_XTT_Cytotoxicity_XSP1: Cytotoxicity Assessment in the Attagene TRANS-FACTORIAL Multi-Species (XSP1) HepG2 Assay (AID 2283810)
# Method in brief: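 XTT viability readout taken at 24 hours post-dosing in HepG2 liver cells co-treated with 3 nM 6-alpha-fluorotestosterone. Signal loss relative to DMSO controls reflects cytotoxicity.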
# [3] = molecular target: Nuclear receptor subfamily 1 group I member 2 (Mus musculus) (UniProt O54915); assay: ATG_mPXR_XSP2: Attagene TRANS-FACTORIAL Multi-Species (XSP1) HepG2 Assay for mouse Pregnane X Receptor (PXR) (AID 2283831)
# Method in brief: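 Reporter transcripts were quantified by RT-PCR, FAM primer extension, HpaI digestion and capillary electrophoresis after 24 h of chemical exposure in transiently transfected HepG2 cells carrying chimeric receptor-GAL4 constructs; DMSO served as baseline.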
# [4] = system: zebrafish Estrogen Receptor (ER2a), gene 317734; assay: ATG_zfER2a_XSP2: Attagene TRANS-FACTORIAL Multi-Species (XSP2) HepG2 Assay for zebrafish Estrogen Receptor (ER2a) (AID 2283818);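 note: hits raise reporter mRNA so AC50 reflects activation of zebrafish ER2a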
# Method in brief: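 Multiplexed trans-reporter readout: RT-PCR then capillary electrophoresis of reporter transcripts after 24 h compound treatment. Human HepG2 carries transfected zebrafish ER2a-Gal4 chimera; 3 nM 6-alpha-fluorotestosterone plus 1.5 nM norgestrel present. Induction scored against DMSO.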
# [5] = system: Sodium/Iodide Symporter (NIS), SLC5A5 (gene 6528); assay: CPHEA_Stoker_NIS_Inhibition_RAIU: CPHEA's Radioactive Iodide Uptake (RAIU) Assay for Sodium/Iodide Symporter (NIS) Inhibition, Stoker and Laws Labs (AID 2283841)
# Method in brief: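 HEK293T cells stably expressing human NIS (hNIS-HEK293T-EPA) were exposed to test chemicals at 0.001–100uM (0.5% final DMSO) with 125I at a final 329pM in HBSS/10mM HEPES pH 7.4. After 2 hours at room temperature and ice-cold washes, intracellular 125I was counted as CPM and normalized to DMSO wells.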
# [6] = CEETOX_H295R_DOC_noMTC: CeeTox H295R High-throughput Steroidogenesis Assay for DOC, maximum tolerated concentration (MTC) filtered results only (AID 2283918; active = hit-call score of the fitted dose curve at least 0.9, where 1 is the maximum; inactive = score below 0.9); settings: actives raise or lower the signal
# Method in brief: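 11-Deoxycorticosterone secreted by human adrenal H295R cells quantified by HPLC-MS/MS after 48 h chemical exposure (0.1% DMSO), following 48 h 10 uM forskolin prestimulation. Concentrations not filtered by MTT-derived MTC; bidirectional fitting.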
# PGR (gene 5241) = PGR (gene 5241) (UniProt P06401); assay: TOX21_PR_LUC_Followup_Agonist: Tox21 HEK293 Progesterone Receptor (PR) Agonism Luciferase Follow-Up Assay (AID 2283937; active = hit-call score of the fitted dose curve at least 0.9, where 1 is the maximum; inactive = score below 0.9)
# Method in brief: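 Agonism scored as luciferase induction over DMSO, read by ONE-Glo after 30 min at RT. Compounds were incubated 16 h at 37C on HEK293-PR-A-luc cells (3,000/well, pre-plated 5 h) previously grown 5 days in charcoal-stripped serum.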
# [7] = TOX21_PR_LUC_Followup_Agonist_viability: Viability Assessment in the Tox21 HEK293 Progesterone Receptor (PR) Agonism Luciferase Follow-Up Assay (AID 2283941);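 note: loss of signal means cytotoxicity so actives lower viability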
# Method in brief: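 Cytotoxicity counter-readout in the PR-A luciferase reporter line HEK293, with 16 h compound exposure at 37C after cells were cultured in charcoal-stripped serum. Cellular ATP quantified by CellTiter-Glo luminescence.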
# [8] = TOX21_TR_RXR_BLA_Agonist_Followup_viability: Viability Assessment in the Tox21 Thyroid Hormone Receptor beta Retinoid X Receptor alpha (RXRa) Agonism Beta-lactamase (BLA) Follow-Up Assay (AID 2283970)
# [9] = CCTE_Simmons_MITO_basal_resp_rate: CCTE's HepG2 Seahorse XF Respirometric Screening Assay at Basal Respiratory State, Simmons Lab (AID 2284001; active = hit-call score of the fitted dose curve at least 0.9, where 1 is the maximum; inactive = score below 0.9); settings: actives raise or lower the signal
# Method in brief: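 Basal-phase OCR in HepG2 cells, read at 6-min intervals across a 72-min run, with test compound injected at 125 nM–100 uM final (7 points). Fitted both directions against DMSO; three biological replicates per concentration.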
# [10] = CCTE_Harrill_HTTr_Apoptosis_MCF7: CCTE's 6-hour Apoptosis Assessment for the High-Throughput Transcriptomics (HTTr) Platform, in MCF-7 cells cultured in DMEM + 10% fetal bovine serum, Harrill Lab (AID 2284011; active = hit-call score of the fitted dose curve at least 0.9, where 1 is the maximum; inactive = score below 0.9)
# Method in brief: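 MCF-7 (DMEM + 10% FBS), 384-well; 8-pt dilution series, 6 h chemical exposure; caspase-3/7 activation via CellEvent Caspase 3/7 Green, HCI; bidirectional fit vs DMSO.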
# [11] = CCTE_Shafer_MEA_acute_cross_correlation_area: CCTE's Neural Acute Assay for Area of Cross Correlation, Shafer Lab (AID 2284024; active = hit-call score of the fitted dose curve at least 0.9, where 1 is the maximum; inactive = score below 0.9;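 note: rat primary cortical neuron networks on 48-well MEA at DIV 13 or 15 with 40 min exposure; area under pooled inter-electrode spike cross-correlation near zero lag as percent change from own baseline; curves fitted for loss of cross-correlation area so actives lower synchrony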)
# Method in brief: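 Plates equilibrated 20 min at 37 C, then 40 min baseline was recorded, compound was added (0.03-40 uM), and a further 40 min was recorded. Wells needed ≥10 active electrodes (≥5 spikes/min) on exposure day.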
# [12] = CCTE_Shafer_MEA_dev_firing_rate_mean: CCTE's Neural Network Formation Assay for Mean Firing Rate, Shafer Lab (AID 2284031; active = hit-call score of the fitted dose curve at least 0.9, where 1 is the maximum; inactive = score below 0.9)
# Method in brief: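 Spike frequency (spikes/recording length, averaged over active electrodes) was recorded on days 5, 7, 9 and 12 and collapsed to AUC; rat cortical cultures received compound continuously over 12 days of network development.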
# [13] = CCTE_Shafer_MEA_dev_active_electrodes_number: CCTE's Neural Network Formation Assay for Number of Active Electrodes, Shafer Lab (AID 2284040);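 note: potency for loss of active electrodes versus DMSO so lower counts are hits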
# Method in brief: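 Counts electrodes per well firing at least 5 spikes/min, recorded on days 5, 7, 9 and 12 in rat cortical cultures dosed continuously from plating (treatment refreshed DIV 5, 9). Value is the area under the curve over recordings, fitted downward relative to DMSO.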
# [14] = CCTE_Shafer_MEA_dev_spike_duration_mean: CCTE's Neural Network Formation Assay for Mean Spike Duration, Shafer Lab (AID 2284051; active = hit-call score of the fitted dose curve at least 0.9, where 1 is the maximum; inactive = score below 0.9;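 note: mean network spike duration pooled as area under curve over DIV 5 to 12 recordings; potency for a decrease in mean network spike duration versus DMSO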)
# Method in brief: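 Rat cortical primary cultures, 48-well MEA (16 electrodes/well); compound from plating, renewed DIV 5, 9. Network spike duration (AxIS adaptive detector) recorded DIV 5/7/9/12, combined as trapezoidal AUC; loss direction vs DMSO.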
# [15] = IUF_NPC1b_proliferation_BrdU_72hr: Leibniz Research Institute for Environmental Medicine (IUF) 72-hour Neural Progenitor Cell Bromodeoxyuridine (BrdU) Proliferation Assay (NPC1b) (AID 2284207; active = hit-call score of the fitted dose curve at least 0.9, where 1 is the maximum; inactive = score below 0.9)
# Method in brief: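 Human fetal cortex-derived (GW 16-19) neural progenitor spheres, 0.25-0.35 mm, one per well in EGF/FGF proliferation medium, exposed to compound for 72 h at 37C, pH 7.2-7.6. BrdU incorporation over the final 16 h read by luminescence ELISA, relative to DMSO.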
# [16] = CCTE_Mundy_HCI_Cortical_Synap_Neur_Matur_BPCount: CCTE's Synaptogenesis and Neurite Maturation Assay in rat cortical cells for Branch Point Count, Mundy Lab (AID 2284211; active = hit-call score of the fitted dose curve at least 0.9, where 1 is the maximum; inactive = score below 0.9)
# Method in brief: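 HCI read-out of branch points from MAP2/synaptophysin/Hoechst immunofluorescence; rat cortical cultures, AraC DIV 5, dosing DIV 7, fixed DIV 12; fit in positive direction vs DMSO baseline.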
# [17] = CCTE_Deisenroth_5AR_NBTE_acceptor: CCTE's 5alpha-reductase NanoBRET Target Engagement Assay - Autofluorescence Screen, Deisenroth Lab (AID 2284321; active = hit-call score of the fitted dose curve at least 0.9, where 1 is the maximum; inactive = score below 0.9;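 note: compound fluorescence in the acceptor channel under 460 nm excitation flags autofluorescence artifacts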); settings: actives raise or lower the signal
# Method in brief: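 Acceptor fluorescence intensity was read as an artifact-detection endpoint. Test chemicals at an assumed nominal 100 uM were excited at 460 nm across three independent runs. Activity was fitted bidirectionally against DMSO.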
# SERPINA7 (gene 6906) = assay: CCTE_GLTED_hTBG: CCTE's human Thyroxine-binding Globulin (TBG) Inhibition Assay, Great Lakes Toxicology and Ecology Division (GLTED) Lab (AID 2284343);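 note: active chemicals lower fluorescence versus DMSO baseline by displacing probe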
# Method in brief: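 Cell-free displacement of the fluorescent probe ANSA from human thyroxine-binding globulin after 2 h exposure. Read-out at ex 380/em 475 nm; DMSO baseline.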
smiles,measurement,setting,value
CC(C)N(C(=O)CCl)c1ccccc1,AC50,AR (gene 367),active: 25.3 µM
C[C@H]1CCCC(=O)CCC/C=C/c2cc(O)cc(O)c2C(=O)O1,AC50,AR (gene 367),active: 31.2 µM
same,outcome,[1],inactive
COP(=O)(OC)O/C(=C\Cl)c1cc(Cl)c(Cl)cc1Cl,outcome,[2],inactive
same,AC50,[3],active: 19.8 µM
CCCCC(CC)COC(=O)c1ccc(C(=O)OCC(CC)CCCC)c(C(=O)OCC(CC)CCCC)c1 (stereo not drawn),AC50,[4],active: 40.9 µM
CC(O)(CS(=O)(=O)c1ccc(F)cc1)C(=O)Nc1ccc(C#N)c(C(F)(F)F)c1 (stereo not drawn),AC50,[3],active: 2.25 µM
CCCCCCCCCCCCOS(=O)(=O)O,outcome,[5],inactive
O=S1(=O)OCC2C(CO1)C1(Cl)C(Cl)=C(Cl)C2(Cl)C1(Cl)Cl (stereo not drawn),outcome,[5],inactive
Brc1ccc(Oc2ccccc2)cc1,outcome,[6],inactive
CC1COC2(c3ccccc3Cl)c3cc(Cl)ccc3NC(=O)CN12 (stereo not drawn),outcome,PGR (gene 5241),inactive
CCC1COC(Cn2cncn2)(c2ccc(Cl)cc2Cl)O1 (stereo not drawn),outcome,[7],inactive
O=C(Cl)OCCOCCOC(=O)Cl,outcome,[8],inactive
CC1=C(C(=O)Nc2ccccc2)SCCO1,outcome,[9],inactive
CNC(=O)CSP(=O)(OC)OC,outcome,[10],inactive
CNC(=O)ON=C(SC)C(=O)N(C)C,outcome,[11],inactive
CCOP(=S)(OCC)OC(Cl)C(Cl)(Cl)Cl (stereo not drawn),outcome,[12],inactive
COP(=S)(OC)SCn1nnc2ccccc2c1=O,AC50,[13],active: 23 µM
CCOP(=S)(OCC)Oc1cc(C)nc(C(C)C)n1,AC50,[14],active: 39.8 µM
Cc1ccc(OP(=O)(Oc2ccc(C)cc2)Oc2ccc(C)cc2)cc1 (tested in a mixture with another compound),AC50,[15],active: 1.98 µM
CCSC(=O)N1CCCCCC1,AC50,[16],active: 13 µM
CCCCCCCCCCCCCCCC[N+](C)(C)C,AC50,[17],active: 16.3 µM
O=C(O)COc1nc(Cl)c(Cl)cc1Cl,AC50,SERPINA7 (gene 6906),active: 39.6 µM
